Where “and” joins values, the source holds several entries; their conditions need not be identical. Equal entries are not always repeated. Where no end group is shown, it is not given here.
Assay: general procedure: Fmoc solid-phase peptide synthesis; Fmoc-Amide resin; HBTU/HOBt
Conditions: whole synthesis, scale 0.25 nmol

## NRDLFFRRLQAYFK-NH2
  crude mass: 352.6 mg
Run 1
  isolated mass: 267.7 mg and 245 mg

From US20110039783A1 (DAIICHI SANKYO COMPANY LIMITED, priority 2007, published 2011)
